Results from cells or extracts need not show a direct contact. Protein sequences can lack the tags named with them. For some of these results: Construct, isoform or probe ends are uncertain for at least one entry.
Legend:
NRSF/REST (endogenous) = biological target: T1, NRSF/REST (endogenous) (UniProt O54963); test: pull-down; conditions: streptavidin beads, western blot, protein in an extract
T1 sequence (looked up, limits assumed): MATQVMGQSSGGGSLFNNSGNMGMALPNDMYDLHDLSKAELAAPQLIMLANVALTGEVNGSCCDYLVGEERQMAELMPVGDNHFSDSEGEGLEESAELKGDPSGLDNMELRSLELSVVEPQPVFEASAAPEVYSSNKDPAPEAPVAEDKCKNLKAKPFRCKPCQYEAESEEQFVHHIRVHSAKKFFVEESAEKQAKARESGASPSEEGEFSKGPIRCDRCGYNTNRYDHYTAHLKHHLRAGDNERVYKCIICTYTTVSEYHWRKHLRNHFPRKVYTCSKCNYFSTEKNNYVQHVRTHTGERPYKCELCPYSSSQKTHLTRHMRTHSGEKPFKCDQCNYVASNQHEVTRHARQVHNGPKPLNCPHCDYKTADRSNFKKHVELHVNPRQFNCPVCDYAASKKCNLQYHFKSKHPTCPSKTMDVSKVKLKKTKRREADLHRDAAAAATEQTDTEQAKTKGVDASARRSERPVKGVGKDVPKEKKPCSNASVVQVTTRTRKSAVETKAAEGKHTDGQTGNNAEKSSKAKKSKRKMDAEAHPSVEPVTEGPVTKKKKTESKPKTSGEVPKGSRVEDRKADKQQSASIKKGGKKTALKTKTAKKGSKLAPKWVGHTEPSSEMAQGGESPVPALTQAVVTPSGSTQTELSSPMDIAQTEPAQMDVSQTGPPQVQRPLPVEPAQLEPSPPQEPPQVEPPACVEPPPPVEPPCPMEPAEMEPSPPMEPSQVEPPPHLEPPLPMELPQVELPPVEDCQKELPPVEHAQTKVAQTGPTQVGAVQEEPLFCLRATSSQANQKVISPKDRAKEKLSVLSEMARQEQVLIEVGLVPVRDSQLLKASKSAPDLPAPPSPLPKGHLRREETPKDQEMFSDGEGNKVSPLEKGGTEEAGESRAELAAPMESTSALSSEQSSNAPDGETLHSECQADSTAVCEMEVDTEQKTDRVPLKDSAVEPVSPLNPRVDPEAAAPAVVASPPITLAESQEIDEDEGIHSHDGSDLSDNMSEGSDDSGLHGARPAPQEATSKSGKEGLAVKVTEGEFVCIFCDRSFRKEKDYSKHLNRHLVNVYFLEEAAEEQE

NRSF/REST (cMyc-tagged) = biological target: T2, NRSF/REST (cMyc-tagged) (UniProt Q13127); test: EMSA; conditions: nucleic acid fixed at 20 uM, protein in a lysate after overexpression
T2 sequence (looked up, limits assumed): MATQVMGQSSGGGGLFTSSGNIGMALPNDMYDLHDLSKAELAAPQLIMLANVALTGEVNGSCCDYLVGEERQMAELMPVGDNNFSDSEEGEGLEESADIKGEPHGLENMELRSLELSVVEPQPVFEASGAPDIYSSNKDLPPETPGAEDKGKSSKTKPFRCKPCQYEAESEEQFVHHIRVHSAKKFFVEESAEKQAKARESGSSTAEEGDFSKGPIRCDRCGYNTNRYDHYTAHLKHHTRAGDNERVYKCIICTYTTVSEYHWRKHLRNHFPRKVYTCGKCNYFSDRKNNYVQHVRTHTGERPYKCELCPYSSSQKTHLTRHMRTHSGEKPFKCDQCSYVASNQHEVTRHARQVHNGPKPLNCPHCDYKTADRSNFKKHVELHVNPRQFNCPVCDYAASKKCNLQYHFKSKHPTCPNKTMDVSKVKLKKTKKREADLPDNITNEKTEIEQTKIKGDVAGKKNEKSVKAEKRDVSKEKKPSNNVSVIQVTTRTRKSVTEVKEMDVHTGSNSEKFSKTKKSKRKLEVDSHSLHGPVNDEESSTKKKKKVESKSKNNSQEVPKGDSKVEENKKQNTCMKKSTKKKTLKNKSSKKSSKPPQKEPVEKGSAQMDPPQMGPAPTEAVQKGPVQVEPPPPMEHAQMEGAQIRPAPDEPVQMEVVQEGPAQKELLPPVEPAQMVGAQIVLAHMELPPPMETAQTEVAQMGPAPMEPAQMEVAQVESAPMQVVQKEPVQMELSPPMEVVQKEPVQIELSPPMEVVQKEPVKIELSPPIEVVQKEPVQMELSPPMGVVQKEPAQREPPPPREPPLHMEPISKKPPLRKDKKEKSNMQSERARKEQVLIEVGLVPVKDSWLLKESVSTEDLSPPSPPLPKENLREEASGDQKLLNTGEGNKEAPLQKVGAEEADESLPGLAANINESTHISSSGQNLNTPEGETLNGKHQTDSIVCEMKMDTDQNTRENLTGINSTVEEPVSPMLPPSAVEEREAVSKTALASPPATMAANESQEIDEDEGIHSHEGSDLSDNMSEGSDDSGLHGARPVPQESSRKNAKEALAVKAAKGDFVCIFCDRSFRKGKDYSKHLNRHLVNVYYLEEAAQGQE

TTCAGCACCACGGACAGCGCC (double strand) [NRSE dsDNA, biotin-labeled]
binding result (NRSF/REST (endogenous); positive control, label: biotin, variant of NRSE/RE1 dsDNA): binds

TTCAGCACCACGGACAGCGCC (double strand) [NRSE/RE1 dsDNA]
binding result (NRSF/REST (cMyc-tagged); shift only at highest protein concentration tested): binds

UUCAGCACCACGGACAGCGCC / GGCGCUGUCCGUGGUGCUGAA [NRSE dsRNA, biotin-labeled]
binding result (NRSF/REST (endogenous); 60 mM KCl, 2.5 mM EDTA, 4 C, wash 350 mM KCl, label: biotin (biotin-UTP and biotin-CTP, 1:5 to natural), variant of NRSE dsRNA): binds

UUCAGCACCACGGACAGCGCC / GGCGCUGUCCGUGGUGCUGAA [NRSE dsRNA]
binding result (NRSF/REST (cMyc-tagged); shift at 16-fold lower protein than needed for NRSE dsDNA): binds

— patent publication US20050226848, “Transcriptional regulation of gene expression by small double-stranded modulatory RNA” (published 2005)
